Laboratory results as given in patent publication US20180106727A1, “ULTRA-HIGH-SENSITIVE ASSAY OF PROTEIN AND NUCLEIC ACID AND KIT, AND NOVEL ENZYME SUBSTRATE” (priority 2011, published 2018).

Assays:
[1] = test system: Pumilio protein; test: ELISA assay of Pumilio protein (β-Galactosidase system), detection and quantification limit
[2] = test system: Pumilio protein; test: ELISA assay of Pumilio protein (Alkaline phosphatase system), detection and quantification limit
[3] = test system: alkaline phosphatase; settings: ALP assay
[4] = conventional substrate, no cycling method printed

Cc1cc(=O)oc2cc(O[C@@H]3O[C@H](CO)[C@H](O)[C@H](O)[C@H]3O)ccc12 [4-MUG, reference compound]
Detection limit [1, 4]: 2.07e-16 mol | Quantification limit [1, 4]: 6.91e-16 mol

CO[C@H]1CC[C@H]2[C@@H]3CC[C@@H]4C[C@H](OP(=O)(O)O)CC[C@]4(C)[C@H]3CC[C@]12C [17-OMe 5β-A3P]
Detection limit ([2]; One-step): 4.0 × 10^−17 | Quantification limit ([2]; One-step): 1.3 × 10^−16 | Detection limit ([2]; Two-steps): 2.45 × 10^−18 | Quantification limit ([2]; Two-steps): 8.17 × 10^−18 | Detection limit ([3]; One-step): 3.25e-18 mol | Quantification limit ([3]; One-step): 1.08e-17 mol | Detection limit ([3]; Two-steps): 8.19e-20 mol | Quantification limit ([3]; Two-steps): 2.73e-19 mol

C[C@]12CC[C@@H](OP(=O)(O)O)C[C@@H]1CC[C@@H]1[C@@H]2CC[C@]2(C)C(=O)CC[C@@H]12 [5α-A3P, 5α-Androsterone 3-Phosphate]
Detection limit ([2]; One-step): 3.57 × 10^−14 | Quantification limit ([2]; One-step): 7.3 × 10^−14 | Detection limit ([2]; Two-steps): 2.63 × 10^−16 | Quantification limit ([2]; Two-steps): 8.76 × 10^−16

CO[C@H]1CC[C@H]2[C@@H]3CC[C@@H]4C[C@H](O[C@@H]5O[C@H](CO)[C@H](O)[C@H](O)[C@H]5O)CC[C@]4(C)[C@H]3CC[C@]12C [17-OMe 5β-AG]
Detection limit ([1]; One-step): 3.24e-17 mol | Quantification limit ([1]; One-step): 1.08e-16 mol | Detection limit ([1]; Two-steps): 3.17e-17 mol | Quantification limit ([1]; Two-steps): 1.06e-16 mol

C[C@]12CC[C@@H](O[C@@H]3O[C@H](CO)[C@H](O)[C@H](O)[C@H]3O)C[C@H]1CC[C@@H]1[C@@H]2CC[C@]2(C)C(=O)CC[C@@H]12 [5β-AG, 5β-Androsterone-3β-D-Galactoside]
Detection limit ([1]; One-step): 2.21e-17 mol | Quantification limit ([1]; One-step): 7.35e-17 mol | Detection limit ([1]; Two-steps): 1.65e-17 mol | Quantification limit ([1]; Two-steps): 5.51e-17 mol

O=[N+]([O-])c1ccc(OP(=O)(O)O)cc1 [p-NPP, p-Nitrophenyl Phosphate]
Detection limit [2, 4]: 3.97 × 10^−16 | Quantification limit [2, 4]: 1.32 × 10^−15

C[C@]12CC[C@@H](OP(=O)(O)O)C[C@H]1CC[C@@H]1[C@@H]2CC[C@]2(C)C(=O)CC[C@@H]12 [5β-A3P, 5β-Androsterone 3-Phosphate]
Detection limit ([2]; One-step): 3.96 × 10^−15 | Quantification limit ([2]; One-step): 1.32 × 10^−14 | Detection limit ([2]; Two-steps): 1.2 × 10^−16 | Quantification limit ([2]; Two-steps): 4 × 10^−16

Like-named read-outs stand apart in the source and are kept apart here.
